Results taken from patent US20250368744A1 (CONCEPT TO MEDICINE BIOTECH, published 2025).
Where a chain is given by its changes, count along the chain named. No constants are given. Whether binding was seen depends on the method and setting. Some binding calls cover weakened binding; strength is not graded here. Each block holds one binder with its values, some of them ahead of it.

Protein sequences, listed by entry. Tags and fused reporters are not part of them. Lines headed by an entry give the natural chain unless they say otherwise; changes in a name come on top. Chains listed by the source or under a name are the forms on record and can include a tag or linker.
cyno CCR8 (G7NYJ2, form named): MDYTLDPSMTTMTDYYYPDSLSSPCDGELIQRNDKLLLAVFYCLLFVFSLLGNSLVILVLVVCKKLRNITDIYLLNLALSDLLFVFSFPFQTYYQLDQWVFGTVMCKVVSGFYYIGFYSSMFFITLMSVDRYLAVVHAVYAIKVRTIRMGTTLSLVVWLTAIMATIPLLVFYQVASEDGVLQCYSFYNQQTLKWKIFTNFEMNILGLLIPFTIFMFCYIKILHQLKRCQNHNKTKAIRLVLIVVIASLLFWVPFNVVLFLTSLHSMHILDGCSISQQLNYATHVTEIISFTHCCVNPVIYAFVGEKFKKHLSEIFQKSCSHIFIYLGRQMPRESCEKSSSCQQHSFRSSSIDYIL

How the values were obtained:
cyno CCR8 [1] = biological target: T1, cyno CCR8 (cynomolgus, UniProt G7NYJ2 1-355); test: FACS, CHO-K1 cyno CCR8 cells, chimeric mAb
T1 construct: whole, on cells; also called cynomolgus CCR8 protein

cyno CCR8 [2] = biological target: T1, cyno CCR8; test: FACS (MFI-PE) on CHO-K1 cyno CCR8 cells, bars at five doses [cont'd) C]
cyno CCR8 [3] = biological target: T1, cyno CCR8; test: FACS (MFI-PE) on CHO-K1 cyno CCR8 cells
cyno CCR8 [4] = biological target: T1, cyno CCR8; test: FACS, CHO-K1 cyno CCR8 cells
cyno CCR8 [5] = biological target: T1, cyno CCR8; test: binding to cyno CCR8, FIG. 9B; method not described in Example 11
cyno CCR8 [6] = biological target: T1, cyno CCR8; test: FACS (MFI-PE) on CHO-K1 cyno CCR8 cells, bars at five doses [cont'd) D]

B1: 84D1-2H3 (antibody, V domains shown)
VH: EVQLQQSGPVLVKPGASVKMSCKASGYTFTDYYVNWVKKSHGKSPEWIGIIKPYNGGTSYNQKFKGKATLTVDKSSSTVYMELNSLTSEDSAVYHCARFAYSRNPYAMDYWGQGTSVTVSS
VL: DVLLTQTPLSLPVSLGDQASISCRSSQSIVHSTGNTYLEWYLQKPGQSPKVLIYKVSTRFSGVPDRFSGSGSGTDFTLKISRVEAEDLGVYYCFQGSHVPPTFGGGTKLEIK
notes: tested as chimeric mAb of the mouse hybridoma clone
binding (cyno CCR8 [1]): binds

B2: 86D4E12A5 (antibody, V domains shown)
VH: DLQLKESGPGLVKPSQSLSLTCSVTGYSITSGYYWNWIRQLPGNKLEWMGYISFDGSNNYNPSLKTRISITRDTSKNQFFLKLNSVTSEDTATYFCARLRGLLLGHFDVWGTGTTVTVSS
VL: DVQMTQSSSYLSVPLGGRVTITCKASDHINNRLAWYQQKPGNAPRLLISGATKLETGIPSRFRGSGSGKDYTLSIFSLQTEDVATYYCQQYWSTSYTFGGGTKLELR
notes: tested as chimeric mAb
binding (cyno CCR8 [1]): binds

B3: 99D1-1E11 (antibody, V domains shown)
VH: B2 VH with L41F, F54Y, F95Y, A97V, L99E
VL: B2 VL with V2I, P14A
notes: tested as chimeric mAb
binding (cyno CCR8 [1]): binds

B4: 96G3-1F10 (antibody, V domains shown)
VH: DLQLKESGPGLVKPSQSLSLTCSVTGYSITSGYYWNWIRQFPGNKLEWMGFISYDGNNNYNPSLKNRISITRDTSKNQFFLNVKSVTTEDTATYYCSRATGLRKAWFAYWGQGTLVTVSA
VL: DIQMTQSSSYLSVSLGGRVTITCKASDHINNWLAWYQQKPGNAPRLLISDTTSLGTGVPSRFRGSGSGKDYTLSITSLQTEDVATYFCQQYWSYPYTFGGGTKLEIR
notes: tested as chimeric mAb
binding (cyno CCR8 [1]): binds

B5: 115C5E3B8 (antibody, V domains shown)
VH: DVQLQESGPGLVKPSQSLSLTCSVTGYSITSGYYWNWIRQFPGNKLEWMGYISYDGYNDYNPSLKNRISITRDTSKNQFFLKLNSVTTEDTATYYCARETGLRKAWFAYWGQGTLVTVSG
VL: B4 VL with W32R, T52S, G55E, R63S, S74R, F87Y, S93G, Y94T, R107K
notes: tested as chimeric mAb
binding (cyno CCR8 [1]): binds

B6: 101D5G10G4 (antibody, V domains shown)
VH: B4 VH with F51Y, V83L, K84N
VL: B4 VL
notes: tested as chimeric mAb
binding (cyno CCR8 [1]): binds

B7: 195H8D10 (antibody, V domains shown)
VH: EVQLVGSGGGLVQPKGSLKLSCAASGFNFNTYVMNWVRQAPGKGLEWVARIRTKSNNYATYYADSVKDRFTISRDDSESKLYLQMNNLKTEDTAMYYCVSGTITRLGGGLDYWGQGTSVTVSS
VL: DIVMTQAAPSVPVTPGESVSISCRSSKRLLHSNGNTYLYWFLQRPGQSPQLLIYRMSNLASGVPDRFSGSGSGTAFTLRISRVEAEDVGVYYCMQHLEYPFTFGGGTKLEIK
notes: tested as chimeric mAb; also called 195H8D10-C
binding (cyno CCR8 [2]): binds
binding (cyno CCR8 [1]): binds

B8: 163H9D5 (antibody, V domains shown)
VH: EVQLVESGGGLVQPKGSLKLSCAASGFSFNTYAMNWVRQAPGKGLKWVARIRTKSNNYATHYADSVKDRFTLSRDDSESMLYLQMNNLKTEDTAMYYCVGGGYGSSASNAMAYWGQGTSVTVSS
VL: B7 VL with R28S, Y54F, G105S
notes: tested as chimeric mAb
binding (cyno CCR8 [3]): no binding (tested: 100 nM)
binding (cyno CCR8 [4]): no binding (tested: 100 nM (highest concentration tested))

Second part, the binder after the results:

binding (cyno CCR8 [5]): binds
B9: 200C9B9-C2 (antibody, V domains shown)
VH: B7 VH with G6E, N28S, E46N, Y61F, A63V, S79N, K80M, T90I, M95I, G108A
VL: B7 VL with R28S, G34A
notes: also called 200C9B9 VH with 200C9B9 VL NG-NA

binding (cyno CCR8 [6]): binds
binding (cyno CCR8 [1]): binds
B10: 200C9B9 (antibody, V domains shown)
VH: B7 VH with G6E, N28S, E46N, Y61F, A63V, S79N, K80M, T90I, M95I, G108A
VL: B7 VL with R28S
notes: tested as chimeric mAb; also called 200C9B9-C

binding (cyno CCR8 [5]): binds
B11: 195H8D10-C2 (antibody, V domains shown)
VH: B7 VH
VL: B7 VL with G34A
notes: also called 195H8D10 VH with 195H8D10 VL NG-NA

binding (cyno CCR8 [3]): binds
B12: 200C9B9-C1 (antibody, V domains shown)
VH: B7 VH with G6E, N28S, E46N, Y61F, A63V, S79N, K80M, T90I, M95I, G108A
VL: B7 VL with R28S, N33Q
notes: also called 200C9B9 VH with 200C9B9 VL NG-QG

binding (cyno CCR8 [1]): binds
B13: 187B5F10 (antibody, V domains shown)
VH: B7 VH with L110M
VL: B7 VL
notes: tested as chimeric mAb
